# No constants are given. Whether binding was seen depends on the method and setting. Some entries that bind do so weakly or less than the wild type.
# Sequences of proteins named here, by UniProt entry; tags and fusion partners are left off. A change or cut given only in a name is not applied to a line headed by its entry.
# UniProt O95436: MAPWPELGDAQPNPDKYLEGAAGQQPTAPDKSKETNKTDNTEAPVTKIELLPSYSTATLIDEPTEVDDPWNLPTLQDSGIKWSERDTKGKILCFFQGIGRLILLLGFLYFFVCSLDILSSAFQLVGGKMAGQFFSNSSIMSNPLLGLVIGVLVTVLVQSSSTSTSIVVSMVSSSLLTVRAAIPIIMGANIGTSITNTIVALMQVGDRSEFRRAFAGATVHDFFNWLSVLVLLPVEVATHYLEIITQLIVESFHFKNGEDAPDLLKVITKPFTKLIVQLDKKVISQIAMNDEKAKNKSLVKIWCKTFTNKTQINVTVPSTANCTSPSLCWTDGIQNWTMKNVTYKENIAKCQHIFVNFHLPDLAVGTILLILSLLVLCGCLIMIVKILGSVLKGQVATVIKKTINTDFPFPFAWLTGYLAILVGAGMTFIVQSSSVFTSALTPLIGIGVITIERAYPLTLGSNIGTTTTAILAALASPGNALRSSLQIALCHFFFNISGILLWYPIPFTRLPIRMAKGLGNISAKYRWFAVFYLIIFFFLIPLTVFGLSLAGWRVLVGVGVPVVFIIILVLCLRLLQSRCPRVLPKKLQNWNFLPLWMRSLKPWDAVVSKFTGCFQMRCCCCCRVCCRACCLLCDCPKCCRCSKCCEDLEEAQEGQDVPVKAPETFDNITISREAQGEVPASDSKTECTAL
# Tests used:
# [1] = target: purified recombinant human Napi2b antigen consisting of Napi2b-extracellular-loop2 expressed as Fc-fusion-6-His-tagged protein (human) (UniProt O95436); assay: ELISA on immobilized recombinant human Napi2b extracellular loop 2-Fc-6-His, HRP anti-human kappa detection
# [2] = target: human NaPi2b on NaPi2b-positive cell lines OVCAR-3 and HCC-78 (human) (UniProt O95436); assay: flow cytometry on NaPi2b-positive HCC-78 cells, Alexa-dye-labeled anti-human IgG H+L secondary antibody, MFI ratio normalized to the non-specific binding control
# [3] = target: human NaPi2b on NaPi2b-positive cell lines OVCAR-3 and HCC-78 (human) (UniProt O95436); assay: flow cytometry on NaPi2b-positive OVCAR-3 cells, Alexa-dye-labeled anti-human IgG H+L secondary antibody, MFI ratio normalized to the non-specific binding control
binding [1],binding [2],binding [3],Binder
binds,,,"parental mAb (parental anti-NaPi2b antibody) (antibody, human IgG1, kappa, L234A L235A, V domains shown) VH: EVQLVQSGAEVVKPGASVKMSCKASGYTFTGYNIHWVKQAPGQGLEWIGAIYPGNGDTSYKQKFRGRATLTADTSTSTVYMELSSLRSEDSAVYYCARGETARATFAYWGQGTLVTVSS VL: DIQMTQSPSSLSASVGDRVTITCSASQDIGNFLNWYQQKPGKTVKVLIYYTSSLYSGVPSRFSGSGSGTDYTLTISSLQPEDFATYYCQQYSKLPLTFGQGTKLELKR"
binds,,,"AV-21 antibody (antibody, human IgG1, kappa, L234A L235A, V domains shown) VH: EVQLVQSGAEVVKPGASVKMSCKASGYTFTGQIIHWVKQAPGQGLEWIGAISPGNSGTSYKQKFRGRATLTADTSTSTVYMELSSLRSEDSAVYYCARGETARATFAYWGQGTLVTVSS VL: DIQMTQSPSSLSASVGDRVTITCSASQDIGNFLNWYQQKPGKTVKVLIYYTSSLYSGVPSRFSGSGSGTDYTLTISSLQPEDFATYYCQQYSKLPLTFGQGTKLELKR"
binds,,,"AV-18 antibody (antibody, human IgG1, kappa, L234A L235A, V domains shown) VH: EVQLVQSGAEVVKPGASVKMSCKASGYTFTGYIIHWVKQAPGQGLEWIGAIYPGSGATSYKQKFRGRATLTADTSTSTVYMELSSLRSEDSAVYYCARGETARATFAYWGQGTLVTVSS VL: DIQMTQSPSSLSASVGDRVTITCSASQDIGNFLNWYQQKPGKTVKVLIYYTSSLYSGVPSRFSGSGSGTDYTLTISSLQPEDFATYYCQQYSKLPLTFGQGTKLELKR"
binds,,,"AV-15 antibody (antibody, human IgG1, kappa, L234A L235A, V domains shown) VH: EVQLVQSGAEVVKPGASVKMSCKASGYTFTGYNIHWVKQAPGQGLEWIGAIYPGNGDTSYKQKFRGRATLTADTSTSTVYMELSSLRSEDSAVYYCARGETARATFAYWGQGTLVTVSS VL: DIQMTQSPSSLSASVGDRVTITCSASQDIGKFLNWYQQKPGKTVKVLIYYSSSLYSGVPSRFSGSGSGTDYTLTISSLQPEDFATYYCQQYSKVPLTFGQGTKLELKR"
binds,,,"AV-29 antibody (antibody, human IgG1, kappa, L234A L235A, V domains shown) VH: EVQLVQSGAEVVKPGASVKMSCKASGYTFTGYNILWVKQAPGQGLEWIGAIYPGNGGTSYKQKFRGRATITADTSTSTVYMELSSLRSEDSAVYYCARGEIARATFAYWGQGTLVTVSS VL: DIQMTQSPSSLSASVGDRVTITCSASQDIGNFLNWYQQKPGKTVKVLIYYASSLYSGVPSRFSGSGSGTDYTLTISSLQPEDFATYYCQQYSKLPLTFGQGTKLELKR"
,binds,binds,"Upifitamab (antibody, human IgG1, kappa, L234A L235A, V domains shown) VH: EVQLVQSGAEVVKPGASVKMSCKASGYTFTGYNIHWVKQAPGQGLEWIGAIYPGNGDTSYKQKFRGRATLTADTSTSTVYMELSSLRSEDSAVYYCARGETARATFAYWGQGTLVTVSS VL: DIQMTQSPSSLSASVGDRVTITCSASQDIGNFLNWYQQKPGKTVKVLIYYTSSLYSGVPSRFSGSGSGTDYTLTISSLQPEDFATYYCQQYSKLPLTFGQGTKLELKR"

# Source: US20240182596A1, “ANTI-NAPI2B ANTIBODIES AND ANTIBODY-DRUG-CONJUGATES BASED THEREON, THERAPEUTIC METHODS AND USES THEREOF” (Tubulis GmbH, priority 2022, published 2024)
